Laboratory results reported in publication PMC13389695.

Sequences of proteins named here, by UniProt entry; tags and fusion partners are left off.
UniProt E2QYC9: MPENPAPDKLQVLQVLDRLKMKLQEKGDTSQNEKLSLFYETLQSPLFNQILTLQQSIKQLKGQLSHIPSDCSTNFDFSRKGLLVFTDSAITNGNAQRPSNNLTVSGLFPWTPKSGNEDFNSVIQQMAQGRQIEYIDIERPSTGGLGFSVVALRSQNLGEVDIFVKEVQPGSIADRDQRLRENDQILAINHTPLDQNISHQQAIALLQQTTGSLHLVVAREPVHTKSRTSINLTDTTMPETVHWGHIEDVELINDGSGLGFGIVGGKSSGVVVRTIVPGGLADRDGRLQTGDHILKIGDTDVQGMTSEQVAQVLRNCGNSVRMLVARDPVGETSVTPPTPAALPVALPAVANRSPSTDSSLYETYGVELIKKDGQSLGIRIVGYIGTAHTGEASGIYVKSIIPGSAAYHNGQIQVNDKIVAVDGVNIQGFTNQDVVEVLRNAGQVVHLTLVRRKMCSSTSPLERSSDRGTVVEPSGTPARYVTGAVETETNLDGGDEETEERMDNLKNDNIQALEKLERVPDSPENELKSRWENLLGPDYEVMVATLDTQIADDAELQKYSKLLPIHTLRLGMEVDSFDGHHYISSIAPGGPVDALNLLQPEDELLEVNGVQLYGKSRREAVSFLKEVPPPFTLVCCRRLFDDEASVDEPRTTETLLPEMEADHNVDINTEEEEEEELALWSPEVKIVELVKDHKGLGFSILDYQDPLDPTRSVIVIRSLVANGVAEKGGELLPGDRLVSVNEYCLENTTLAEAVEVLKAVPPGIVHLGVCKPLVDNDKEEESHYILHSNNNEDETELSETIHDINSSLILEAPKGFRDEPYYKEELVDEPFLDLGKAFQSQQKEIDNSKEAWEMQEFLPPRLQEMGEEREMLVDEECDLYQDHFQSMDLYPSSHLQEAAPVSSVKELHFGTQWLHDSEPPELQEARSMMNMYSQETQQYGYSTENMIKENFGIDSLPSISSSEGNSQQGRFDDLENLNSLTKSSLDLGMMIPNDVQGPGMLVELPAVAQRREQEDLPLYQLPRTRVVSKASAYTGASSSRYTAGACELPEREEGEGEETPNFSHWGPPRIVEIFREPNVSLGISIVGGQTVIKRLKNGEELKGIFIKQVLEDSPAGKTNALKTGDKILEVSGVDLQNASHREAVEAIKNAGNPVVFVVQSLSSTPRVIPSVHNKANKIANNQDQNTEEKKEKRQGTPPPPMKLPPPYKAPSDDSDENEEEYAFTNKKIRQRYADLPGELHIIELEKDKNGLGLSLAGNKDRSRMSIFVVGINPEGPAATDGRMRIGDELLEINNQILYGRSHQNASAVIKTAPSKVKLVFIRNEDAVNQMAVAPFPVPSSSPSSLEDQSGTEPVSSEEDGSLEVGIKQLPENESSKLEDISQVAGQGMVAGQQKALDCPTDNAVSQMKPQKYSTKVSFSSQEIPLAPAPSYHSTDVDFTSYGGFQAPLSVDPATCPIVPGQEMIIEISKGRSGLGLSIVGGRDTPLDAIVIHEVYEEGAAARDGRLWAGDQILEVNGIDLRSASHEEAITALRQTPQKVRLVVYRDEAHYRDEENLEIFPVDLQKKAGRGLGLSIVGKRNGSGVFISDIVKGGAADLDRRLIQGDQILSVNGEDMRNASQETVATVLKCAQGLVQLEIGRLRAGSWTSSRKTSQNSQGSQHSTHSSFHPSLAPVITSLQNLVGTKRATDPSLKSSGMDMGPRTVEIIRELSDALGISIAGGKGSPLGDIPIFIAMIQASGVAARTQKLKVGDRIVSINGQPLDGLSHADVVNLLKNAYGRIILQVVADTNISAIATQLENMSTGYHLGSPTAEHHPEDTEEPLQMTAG

Biological target: T1, GFP tagged Homer3 (UniProt Q9NSC5)
T1 sequence: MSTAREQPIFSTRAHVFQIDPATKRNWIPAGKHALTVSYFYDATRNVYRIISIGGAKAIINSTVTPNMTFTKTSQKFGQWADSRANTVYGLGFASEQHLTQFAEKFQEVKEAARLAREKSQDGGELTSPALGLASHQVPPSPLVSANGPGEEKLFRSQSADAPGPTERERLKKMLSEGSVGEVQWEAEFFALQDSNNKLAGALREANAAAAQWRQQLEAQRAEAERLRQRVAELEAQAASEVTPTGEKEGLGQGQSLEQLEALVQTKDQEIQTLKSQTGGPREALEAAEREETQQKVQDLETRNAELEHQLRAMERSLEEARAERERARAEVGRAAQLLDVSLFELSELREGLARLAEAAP
Assay: affinity purification with mass spectrometry; IP-MS of GFP tagged Homer3 stably expressed in MDCK cells

- binding: binds
Substance: PATJ (endogenous, MDCK) (from UniProt E2QYC9 1-1828)

Results are given in words; binding and its absence hold for the method and conditions named. In cells and extracts the contact can be indirect. These calls come from enrichment with a bait or labelling near it, and not all partners need be listed. Tags and fused reporters may be left off the sequences shown.
